Some of the results follow.

Experimental findings from paper PMC7819943, “Rice protein-binding microarrays: a tool to detect cis-acting elements near promoter regions in rice” are described below.

The test addresses T1, OsSMF1 (Oryza sativa, UniProt Q6ZLB0 1-436).
T1 sequence: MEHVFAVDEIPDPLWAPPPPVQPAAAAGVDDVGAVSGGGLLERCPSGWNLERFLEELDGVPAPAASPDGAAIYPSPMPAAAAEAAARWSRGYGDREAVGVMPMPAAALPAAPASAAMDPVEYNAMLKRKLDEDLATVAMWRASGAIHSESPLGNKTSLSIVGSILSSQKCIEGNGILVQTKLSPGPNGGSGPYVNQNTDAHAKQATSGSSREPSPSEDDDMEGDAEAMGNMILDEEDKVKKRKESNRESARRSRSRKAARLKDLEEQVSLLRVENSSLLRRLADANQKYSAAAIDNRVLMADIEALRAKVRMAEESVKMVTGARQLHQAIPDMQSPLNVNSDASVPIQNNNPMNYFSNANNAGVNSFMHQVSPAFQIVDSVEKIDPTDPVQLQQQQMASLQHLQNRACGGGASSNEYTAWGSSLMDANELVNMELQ
In words: protein-binding microarray (RPBM); PBS, 2% BSA, 51.3 ng/ul salmon testes DNA, 50 uM zinc acetate, 200 nM TF, 25 C, 1 h; high values mean tight binding. Conditions: protein: recombinant; tags: N-terminal polyhistidine and DsRed monomer fusion (pET32a); chain copies: 2; label: CyDye5-dUTP incorporated in the synthesized complementary strand; 3' TTTTT single-stranded linker to array surface; dsDNA, one strand shown. The method, boiled down:
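The binding signal for each feature is its fluorescence intensity in arbitrary units. An Axon 4000B scanner was used to read a custom Agilent array that had been made double-stranded with Cy5-dUTP primer extension, blocked with 2% BSA, incubated at 25 °C for 1 h with 200 nM protein in PBS, 2% BSA, salmon testes DNA and 50 µM zinc acetate, and washed. The protein was an N-terminal polyhistidine–DsRed transcription factor fusion from E. coli BL21-CodonPlus, purified on Ni–NTA.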
For “CTCCTCCACCACCACACGCACGTACAGACGTACTCGATCTCGGAGTCACCTAGTGCAG”, the binding signal was 3200 fluorescence intensity (a.u.).

Consider “CTTCTCCACCGTCTCCATGGCTGTCCTGTCCGGCCCCTGGCGGAGTCACCTAGTGCAG”, for which the binding signal is 3180 fluorescence intensity (a.u.). On to “AGAGTTCAGTGTCCATGTGCGAAAAGTGCCATCCCTCTCTCGGAGTCACCTAGTGCAG”, for which the binding signal is 3210 fluorescence intensity (a.u.).

As to “ACCAGGGGACCCGTCCCGCGCGCGTTACACCGATCGAATCCGGAGTCACCTAGTGCAG”, the binding signal is 3160 fluorescence intensity (a.u.). Then “GCACGCCGGCGTATCGCCGGCGATCCCAACTCCACGTCGACGGAGTCACCTAGTGCAG”, with 8050 fluorescence intensity (a.u.).

“CTCAGCCTACCCATATAATAGTGAGTTCTTTACGATTAATCGGAGTCACCTAGTGCAG”: the binding signal is 4160 fluorescence intensity (a.u.). Next, “CACGTCGGTTCGCGTGCGCCACGGTGGCAGGAGGACGGCGCGGAGTCACCTAGTGCAG”: 11200 fluorescence intensity (a.u.); “GCAGCACAAAAGTTCATTCCTCCCTTTCTCTTTGCAGGCACGGAGTCACCTAGTGCAG”: 16100 fluorescence intensity (a.u.); “CACATGATACCTCGCGAGTATCACGCGATACGTGGTAGAACGGAGTCACCTAGTGCAG”: 3400 fluorescence intensity (a.u.). Next, “CAGCAGATGAGTGGCTGGTTAGCTGGACAGGAGTCACAGGCGGAGTCACCTAGTGCAG”: 3360 fluorescence intensity (a.u.); “GAGGTAACGTGATAACGTCATCATAGCATCATCGCTGACACGGAGTCACCTAGTGCAG”: 4180 fluorescence intensity (a.u.). Then “CGACGACCACCACCTACCCCACCGATGACGCCGTCCGCCACGGAGTCACCTAGTGCAG”, with 4700 fluorescence intensity (a.u.); and “GCGAGAAATTAAAATTTCCCATTGGTTAAGGCAGACACGACGGAGTCACCTAGTGCAG”, with 3620 fluorescence intensity (a.u.); and “CTCCGTCGCCTTTCCACGTGCCACCATGGATGACGACCATCGGAGTCACCTAGTGCAG”, with 5510 fluorescence intensity (a.u.).

Consider “ACTATATACAACTAGTCATGCACCCTGCAGGTTGACTTTACGGAGTCACCTAGTGCAG”, for which the binding signal was 25200 fluorescence intensity (a.u.).

“GATAGGGTTTCTCATAGATGATGTGGTAGTTGATTTAGACCGGAGTCACCTAGTGCAG”: the binding signal is 3940 fluorescence intensity (a.u.). Next, “GCACGAGTGGATCAGGTCAAATATCCACGTCAGCCAAACCCGGAGTCACCTAGTGCAG”: 18000 fluorescence intensity (a.u.). Next, “TGATCTGCTCAACTTCAACAAGACCCATGGTGACCATGTCCGGAGTCACCTAGTGCAG”: 3180 fluorescence intensity (a.u.). Next, “TATATATACCACGTCTAGCACTAGTCATCTCGATCTTGGGCGGAGTCACCTAGTGCAG”: 4840 fluorescence intensity (a.u.); “ACTTAAGTGTTAGTGTATTGTGTATAGTGGTTAGAGCCCGCGGAGTCACCTAGTGCAG”: 19000 fluorescence intensity (a.u.); “AGACCAAGAAGTCTACACAATGTCAGTATCTCTATTGTAGCGGAGTCACCTAGTGCAG”: 11200 fluorescence intensity (a.u.).

For “TGCACCCGGAAAGAATTTCCCGATCGGTCACCCATCCCAACGGAGTCACCTAGTGCAG”, the binding signal is 4100 fluorescence intensity (a.u.). As for “AATTTTCAAGGAAAAGGATTGCGGTGACGAGGATAATTTGCGGAGTCACCTAGTGCAG”, the binding signal was 3620 fluorescence intensity (a.u.). With “ATATATATTTTCTAATGGAGCATTTAGCACATTCGGTTTACGGAGTCACCTAGTGCAG”, the binding signal was 21500 fluorescence intensity (a.u.). Then “CCTCTGGCATCCATTATTGAGTTTATTAATCCTCCATCCTCGGAGTCACCTAGTGCAG”, with 26300 fluorescence intensity (a.u.); and “TTGTGATGTCCACGTATTCAGGATTAGACCACAGGCCCGGCGGAGTCACCTAGTGCAG”, with 8170 fluorescence intensity (a.u.). Then “ACAAACACCACCGACGTTGCCATCGTCACGGTACCAGACTCGGAGTCACCTAGTGCAG”, with 4830 fluorescence intensity (a.u.); and “TAAGGTGGTTGGACGGTTAGCATCTTCCTCCTCAAGCTGACGGAGTCACCTAGTGCAG”, with 3290 fluorescence intensity (a.u.).

Regarding “AGCCCACTTAACATTAACGAGCCACGCTTACGTTTCTTGGCGGAGTCACCTAGTGCAG”, the binding signal was 3290 fluorescence intensity (a.u.). “AAAAGGCCCTCCAGTGGGCCTGGGGCATCTGACGTGTCAACGGAGTCACCTAGTGCAG”: the binding signal is 16200 fluorescence intensity (a.u.). As to “TTCGCTAATACTTAGATACGTCGTTCGTATTTCAGTCTGTCGGAGTCACCTAGTGCAG”, the binding signal is 24200 fluorescence intensity (a.u.). Then “TGCACCTAGGTGTACATGTCATTGTGTGTTTGTGGTTGGTCGGAGTCACCTAGTGCAG”, with 4630 fluorescence intensity (a.u.).

Take “GCTACTGAGCGTACTACCATGTTCTTAAAGGTGATGCAGACGGAGTCACCTAGTGCAG”: the binding signal was 3540 fluorescence intensity (a.u.). Next, “ACGCGCGGCCTAGTTGTGTGTGGGTGTGTGAGGTGAGGGGCGGAGTCACCTAGTGCAG”: 3480 fluorescence intensity (a.u.). Regarding “CGGAGTCTGACTCGGACTCTGCTGGTCAGACTGGCTACATCGGAGTCACCTAGTGCAG”, the binding signal is 5090 fluorescence intensity (a.u.). Then “CACATGGGCCCGCTTGACAGCCCTAGCAGAGAGAATCTCACGGAGTCACCTAGTGCAG”, with 32000 fluorescence intensity (a.u.).

For “ATATCAAATTTTCTTCCTGTTAATCAGAATAAGAGGTCAACGGAGTCACCTAGTGCAG”, the binding signal was 36300 fluorescence intensity (a.u.). On to “TTTTATACTATATATGAAAGTTGACAGAATGACAGGCTTTCGGAGTCACCTAGTGCAG”, for which the binding signal is 3740 fluorescence intensity (a.u.).

With “AAGACAAATGAAGATGCGATGACGTGAATACCCGGTAGGACGGAGTCACCTAGTGCAG”, the binding signal was 5020 fluorescence intensity (a.u.). Turning to “CATCTTGTTACAGCTATGTGATACACTTGTACTTGGCAGACGGAGTCACCTAGTGCAG”, the binding signal is 3570 fluorescence intensity (a.u.). Regarding “TTCACATCGTTGCAATAAATAATTATACCACTACTTCATACGGAGTCACCTAGTGCAG”, the binding signal is 24800 fluorescence intensity (a.u.).

Consider “TCCTACGTGACATTTACGTGTCATGTCATATGAATATTCCCGGAGTCACCTAGTGCAG”, for which the binding signal was 9290 fluorescence intensity (a.u.).
